In patent publication US20160159861A1, “APJ Receptor Compounds” (priority 2013, published 2016):
At least one compound was matched to its structure with a doubt left. Some results were stated once for a whole list of compounds, not compound by compound. Peptide text beside a SMILES is read from it.

What follows are molecules tested against T1, human APJ receptor (hAPJ) (Homo sapiens, UniProt P35414) (assay: HTRF cAMP assay: inhibition of NKH477-stimulated cAMP in HEK cells stably expressing hAPJ). Conditions: HTRF cAMP Assay, per data of Table 6; read-out: EC50 (hAPJ), inhibition of cAMP production, bound stated.
T1 construct: expressed in transfected cells
T1 sequence (P35414 1-380): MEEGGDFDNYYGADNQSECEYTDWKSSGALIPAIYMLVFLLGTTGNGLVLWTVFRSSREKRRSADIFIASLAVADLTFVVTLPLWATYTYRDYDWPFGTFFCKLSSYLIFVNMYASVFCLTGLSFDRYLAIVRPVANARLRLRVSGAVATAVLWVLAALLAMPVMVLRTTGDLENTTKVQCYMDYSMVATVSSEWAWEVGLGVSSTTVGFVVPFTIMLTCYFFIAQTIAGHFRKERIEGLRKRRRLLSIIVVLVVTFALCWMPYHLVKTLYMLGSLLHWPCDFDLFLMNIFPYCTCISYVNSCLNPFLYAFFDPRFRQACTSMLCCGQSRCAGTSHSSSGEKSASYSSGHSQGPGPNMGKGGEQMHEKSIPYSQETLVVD
Type: cell-based
Excerpt: HTRF cAMP Assay and IP-One Assay (Cisbio)
HTRF (homogeneous time resolved fluorescence) is a technology developed by Cisbio Bioassays based on TR-FRET (time-resolved fluorescence resonance energy transfer). Cisbio Bioassays has developed a wide selection of HTRF-based assays compatible with whole cells, thereby enabling functional assays to run under more physiological conditions. The IP-One assays are competitive immunoassays using cryptate-labeled anti-IP1 monoclonal antibody and d2-labeled IP1. IP1 is a relatively stable downstream metabolite of IP3, and accumulates in cells following Gq receptor activation.
cAMP kits based on a competitive immunoassay using cryptate-labeled anti-cAMP antibody and d2-labeled cAMP were used to assay the effects of APJ compounds of the present invention. […] Cells are treated with 1 nG/mL doxycycline and seeded in all white 96 well plates @40 k/well overnight.

Question: Which EC50 does the source give for CCCCCCCCCCCCCCCC(=O)N1CCC[C@H]1C(=O)N[C@@H](CCC(=O)O)C(=O)N[C@H](CCCCN)C(=O)N[C@@H](CCCNC(=N)N)C(=O)N[C@@H](CCCNC(=N)N)C(=O)N[C@@H](CO)C(=O)N[C@@H](C)C(=O)N[C@@H](CC(=O)O)C(=O)N[C@H](C(=O)N[C@@H](Cc1ccccc1)C(=O)N1CCC[C@H]1C(N)=O)[C@@H](C)CC [Compound 4] (HELM PEPTIDE1{[CCCCCCCCCCCCCCCC(=O)[*:2]].P.E.[dK].R.R.S.A.D.I.F.P.[am]}$$$$V2.0) here?
Answer: Its EC50 is at most 50 nM.

Question: How did the EC50 turn out when CCCCCCCCCCCCCCCC(=O)N[C@H](C(=O)N[C@H](C(=O)N[C@@H](CC(=O)O)C(=O)N[C@@H](CCCNC(=N)N)C(=O)N[C@@H](CO)C(=O)N[C@@H](CO)C(=O)N[C@@H](CCCNC(=N)N)C(=O)N[C@@H](CCC(=O)O)C(=O)N[C@H](CCCCN)C(=O)N[C@@H](CCCNC(=N)N)C(=O)N[C@@H](CCCNC(=N)N)C(=O)N[C@@H](CCC(=O)O)C(=O)N[C@@H](CO)C(=O)N[C@@H](C)C(=O)N[C@@H](CC(=O)O)C(=O)N[C@H](C(=O)N[C@@H](Cc1ccccc1)C(=O)N[C@H](C(N)=O)[C@@H](C)CC)[C@@H](C)CC)C(C)C)[C@@H](C)O [Compound 5] (HELM PEPTIDE1{[CCCCCCCCCCCCCCCC(=O)[*:2]].T.V.D.R.S.S.R.E.[dK].R.R.E.S.A.D.I.F.I.[am]}$$$$V2.0) was run?
Answer: Its EC50 is at most 50 nM.

Question: CCCCCCCCCCCCCCCC(=O)N1CCC[C@H]1C(=O)N[C@@H](CCCCNC(=O)[C@@H]1CCCN1C(=O)[C@H](Cc1ccccc1)NC(=O)[C@@H](NC(=O)[C@H](CC(=O)O)NC(=O)[C@H](C)NC(=O)[C@H](CO)NC(=O)[C@H](CCCNC(=N)N)NC(=O)[C@H](CCCNC(=N)N)NC(=O)[C@@H](CCCCN)NC(=O)[C@@H]1CCCN1C(C)=O)[C@@H](C)CC)C(=O)N[C@@H](CCCNC(=N)N)C(=O)N[C@@H](CCCNC(=N)N)C(=O)N[C@@H](CO)C(=O)N[C@@H](C)C(=O)N[C@@H](CC(=O)O)C(=O)N[C@H](C(=O)N[C@@H](Cc1ccccc1)C(=O)N1CCC[C@H]1C(N)=O)[C@@H](C)CC [Compound 9] (HELM PEPTIDE1{[CCCCCCCCCCCCCCCC(=O)[*:2]].P.K.R.R.S.A.D.I.F.P.[am]}|PEPTIDE2{[ac].P.[dK].R.R.S.A.D.I.F.P}$PEPTIDE1,PEPTIDE2,3:R3-11:R2$$$V2.0) was tested. Which EC50 did it give?
Answer: The EC50 was at most 50 nM.

Question: Which EC50 does the source give for CCCCCCCCCCCCCCCC(=O)N[C@H](C(=O)N[C@H](C(=O)N[C@@H](Cc1ccccc1)C(=O)N[C@@H](CCCNC(=N)N)C(=O)N[C@@H](CO)C(=O)N[C@@H](CO)C(=O)N[C@@H](CCC(=O)O)C(=O)N[C@H](CCCCN)C(=O)N[C@@H](CCCNC(=N)N)C(=O)N[C@@H](CCCNC(=N)N)C(=O)N[C@@H](CO)C(=O)N[C@@H](C)C(=O)N[C@@H](CC(=O)O)C(=O)N[C@@H](Cc1ccc(-c2ccccc2)cc1)C(=O)N[C@@H](Cc1ccccc1)C(=O)N[C@H](C(N)=O)[C@@H](C)CC)C(C)C)[C@@H](C)O [Compound 11, TVFRSSEkRRSAD(Bip)FI] (HELM PEPTIDE1{[CCCCCCCCCCCCCCCC(=O)[*:2]].T.V.F.R.S.S.E.[dK].R.R.S.A.D.[O=C([C@H](Cc1ccc(-c2ccccc2)cc1)N[*:1])[*:2]].F.I.[am]}$$$$V2.0) here?
Answer: Its EC50 is at most 50 nM.

Question: Which EC50 does the source give for CCCCCCCCCCCCCCCC(=O)N[C@@H](CC(=O)O)C(=O)N[C@H](C(=O)N[C@@H](Cc1ccccc1)C(=O)N[C@@H](CCC(N)=O)C(=O)N[C@@H](CO)C(=O)N[C@@H](CO)C(=O)N[C@@H](CCC(=O)O)C(=O)N[C@H](CCCCN)C(=O)N[C@@H](CCCNC(=N)N)C(=O)N[C@@H](CCCNC(=N)N)C(=O)N[C@@H](CO)C(=O)N[C@@H](C)C(=O)N[C@@H](CC(=O)O)C(=O)N[C@@H](CCC(N)=O)C(=O)N[C@@H](Cc1ccccc1)C(=O)N[C@H](C(N)=O)[C@@H](C)CC)C(C)C [Compound 12] (HELM PEPTIDE1{[CCCCCCCCCCCCCCCC(=O)[*:2]].D.V.F.Q.S.S.E.[dK].R.R.S.A.D.Q.F.I.[am]}$$$$V2.0) here?
Answer: Its EC50 is at most 50 nM.

Same assay, conditions: Table 6; hAPJ HEK cells, NKH477-stimulated cAMP; read-out: EC50 (cAMP inhibition, hAPJ HEK)

Question: How did the EC50 turn out when CCCCCCCCCCCCCCCC(=O)N1CCC[C@H]1C(=O)N[C@@H](CCCCNC(=O)[C@@H]1CCCN1C(=O)[C@H](Cc1ccccc1)NC(=O)[C@@H](NC(=O)[C@H](CC(=O)O)NC(=O)[C@H](C)NC(=O)[C@H](CO)NC(=O)[C@H](CCCNC(=N)N)NC(=O)[C@H](CCCNC(=N)N)NC(=O)[C@@H](CCCCN)NC(=O)[C@@H]1CCCN1C(C)=O)[C@@H](C)CC)C(=O)N[C@@H](CCCNC(=N)N)C(=O)N[C@@H](CCCNC(=N)N)C(=O)N[C@@H](CO)C(=O)N[C@@H](C)C(=O)N[C@@H](CC(=O)O)C(=O)N[C@H](C(=O)N[C@@H](Cc1ccccc1)C(=O)N1CCC[C@H]1C(N)=O)[C@@H](C)CC [Compound 9] (HELM PEPTIDE1{[CCCCCCCCCCCCCCCC(=O)[*:2]].P.K.R.R.S.A.D.I.F.P.[am]}|PEPTIDE2{[ac].P.[dK].R.R.S.A.D.I.F.P}$PEPTIDE1,PEPTIDE2,3:R3-11:R2$$$V2.0) was run?
Answer: Its EC50 is 44 nM.
